Measurements from publication PMC7467243, “Response to and recovery from treatment in human liver-mimetic clinostat spheroids: a model for assessing repeated-dose drug toxicity” (Toxicology Research, 2020).

Experiments:
HepG2–C3A spheroids [1] = details: human
Procedure: Three hundred 21-day old spheroids (corresponding to ~25 million cells or 3.5 mg protein) were gently pipetted (using a cut-tip) into each 10 ml bioreactor before treatment to provide ample material for analysis. To initiate drug treatment, the bioreactor rotation was stopped for 30 s to allow the spheroids to settle to the bottom of the bioreactor. […] Each narrow range experiment was carried out in duplicate and ATP was measured in technical triplicates for each sample. […] Data were normalized to the vehicle-treated control. Error bars in the figures show standard deviation.
Cell viability was measured based on their ability to produce ATP [37]. […] The cells were then lysed with 100 μl of lysis buffer (CellTiter-Glo luminescent cell viability assay, Promega, Fitchburg, WI, Cat. no. G7571) and shaken in the dark for 20 min. Before the luminescence was measured in a FluoStar OPTIMA (BMG Labtech, Ortenberg, Germany) using the following parameters: one kinetic window, 10 measurement cycles with 0.3 s of measurement interval time, 2-s delay per measurement, additional 0.5-s delay per position change (repeated twice for each measured plate). Replicates were performed as described under the ‘Drug treatment’ Section. The data were normalized with reference to a standard curve for ATP and to the untreated control.

HepG2–C3A spheroids [2] = test system: HepG2–C3A spheroids
[3] = cited from earlier work
[4] = cited from earlier work; remark: listed apart in the source

## CCCCc1oc2ccccc2c1C(=O)c1cc(I)c(OCCN(CC)CC)c(I)c1 [Amiodarone]
HepG2–C3A spheroids [1]
  acute lethal dose: 0.9 mg/mg
HepG2–C3A spheroids [2]
  change in the LD50 with galactose medium: no change
[3]
  Toxic dose, μg/ml in blood: 2.5 to 3 µg/mL
[4]
  DILI rank (risk to induce drug-induced liver injury): vMost DILI
